PubChem BioAssay AID1671195 – Yale University – 2021
This is one part, drawn at random, of about 22,000 reagents. In the full data, about 1,510 (6.9%) got an active call. 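Active includes knockdowns raising or lowering LDL uptake; positive z-scores mean more uptake, negative mean less.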 Reagent sequences are not shown.

Purpose: 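Genes whose knockdown alters LDL uptake in liver cancer cells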 (primary screen)
Cell system: human Huh7 hepatoma cells
Reagents: siRNA pool against human genes, 18 nM
Time to read-out: about 2 to 2.5 days of knockdown, then 8 h LDL uptake
Treatment: DiI-labelled LDL at 30 µg/ml for 8 h, in lipoprotein-deficient serum medium
Measurement: 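Per-cell DiI-LDL intensity by automated imaging; well means scaled to the plate median and given as a robust z-score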
Scale: robust z-score: higher = more LDL uptake after knockdown
Call rule: 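Active when two or more replicates show a robust z-score above 2 or below -2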

gene knocked down | robust z-score, replicate 1 | robust z-score, replicate 2 | robust z-score, replicate 3 | Outcome
ZPLD1 (zona pellucida like domain containing 1) | 1.91 | 1.66 | 1.79 | inactive
TTC33 (tetratricopeptide repeat domain 33) | 0.448 | 1.9 | 1.19 | inactive
LOC402253 (retired record) | 0.293 | 0.799 | 0.431 | inactive
ANKRD13A (ankyrin repeat domain 13A) | 0.232 | 0.789 | 0.574 | inactive
MFF (mitochondrial fission factor) | -0.0547 | 0.197 | 0.446 | inactive
ISCA1P1 (iron-sulfur cluster assembly 1 pseudogene 1) | -1.07 | -1.12 | -0.954 | inactive
ZNF408 (zinc finger protein 408) | -0.0736 | -0.121 | -0.404 | inactive
ALDH3B1 (aldehyde dehydrogenase 3 family member B1) | -0.517 | -0.758 | -0.416 | inactive
MYEF2 (myelin expression factor 2) | -0.0107 | 0.546 | -0.526 | inactive
PCNX1 (pecanex 1) | -0.733 | 1.11 | -1.32 | inactive
LOC440935 (retired record) | -0.986 | 0.451 | 0.0839 | inactive
CHRAC1 (chromatin accessibility complex subunit 1) | -1.03 | -1.54 | -0.912 | inactive
TREML1 (triggering receptor expressed on myeloid cells like 1) | -1.13 | -0.896 | -1.1 | inactive
ENKUR (enkurin, TRPC channel interacting protein) | 0.013 | -0.497 | -0.339 | inactive
LOC440943 (retired record) | 0.453 | 0.477 | 1.1 | inactive
MAP4K5 (mitogen-activated protein kinase kinase kinase kinase 5) | -1.38 | -2.07 | -2.49 | active
MBNL1 (muscleblind like splicing regulator 1) | -1.24 | -1.3 | -1.22 | inactive
ALKBH8 (alkB homolog 8, tRNA methyltransferase) | 0.428 | 0.415 | 0.238 | inactive
LOC440033 (retired record) | 1.32 | 1.94 | 1.17 | inactive
TMEM179 (transmembrane protein 179) | 1.08 | 2.19 | 1.67 | inactive
FOXL2NB (FOXL2 neighbor) | -1.4 | -1.32 | -1.19 | inactive
DPH2 (diphthamide biosynthesis 2) | 1.54 | -0.49 | 0.381 | inactive
FGF1 (fibroblast growth factor 1) | 0.346 | 0.136 | 0.0197 | inactive
TPR (translocated promoter region, nuclear basket protein) | -0.504 | -0.279 | -0.365 | inactive
SLC7A3 | -1.35 | -1.13 | -1.44 | inactive
SRSF2P1 (SRSF2 pseudogene 1) | -0.916 | -0.931 | -0.286 | inactive
MYEOV (myeloma overexpressed) | -0.231 | 0.814 | -0.146 | inactive
GID8 (GID complex subunit 8 homolog) | 0.00542 | -0.555 | -1.86 | inactive
RNASE8 (ribonuclease A family member 8) | -0.878 | -1.15 | -0.875 | inactive
RAD9A (RAD9 checkpoint clamp component A) | 0.526 | -1.11 | 0.602 | inactive
ANKS3 (ankyrin repeat and sterile alpha motif domain containing 3) | 0.0978 | 0.459 | 0.66 | inactive
FOXS1 (forkhead box S1) | -1.15 | -1.42 | -1.32 | inactive
SIRPB1 (signal regulatory protein beta 1) | -1.39 | -1.27 | -1.28 | inactive
TERF2IP (TERF2 interacting protein) | -1.72 | -1.97 | -1.62 | inactive
KRT18P36 (keratin 18 pseudogene 36) | -1.75 | -1.7 | -1.47 | inactive
NDNF (neuron derived neurotrophic factor) | 0.941 | 1.08 | 0.193 | inactive
PHACTR3 (phosphatase and actin regulator 3) | -0.89 | -0.517 | -0.512 | inactive
LOC442380 (retired record) | -3.62 | -3.57 | -3.28 | active
LOC441847 (retired record) | -0.587 | 0.343 | -0.383 | inactive
NDUFB3 (NADH:ubiquinone oxidoreductase subunit B3) | 1.09 | -0.0466 | 1.03 | inactive
SPRR2A (small proline rich protein 2A) | -0.626 | 1.75 | 0.135 | inactive
IP6K2 (inositol hexakisphosphate kinase 2) | 2.73 | 0.0216 | 2.07 | active
NUP43 (nucleoporin 43) | -0.0987 | -0.476 | -0.146 | inactive
TUBB4B (tubulin beta 4B class IVb) | -0.174 | -0.58 | -0.227 | inactive
GNB1L (G protein subunit beta 1 like) | -0.133 | 0.419 | 0.189 | inactive
MIB2 (MIB E3 ubiquitin protein ligase 2) | 1.29 | 3.31 | 2.64 | active
